Measurements from the supplement of paper PMC8728848.
Some of the results follow.

Tests used:
Assay in all cases: glycan array binding signal (z-score within array); higher = stronger binding
Conditions in all cases: glycan notation: IUPAC condensed, linker removed
[1] = molecular target: GlcNAc(a1-6)Gal(b1-4)GlcNAc
Procedure, shortened: (§1)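 Glycan array data came from 3228 arrays in the Consortium for Functional Glycomics database, and only arrays with an available protein sequence were kept. Glycan names were put into IUPAC-condensed notation, and columns mapping to the same glycan were averaged. The binding signal is a within-array Z-score, averaged across arrays of one protein sequence run at different concentrations or buffers and across linkers. A negative Z-score can be read as non-binding.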

[2] = molecular target: GlcNAc(b1-2)Gal(b1-3)GalNAc
Procedure, shortened: as §1

[3] = molecular target: GlcNAc(b1-2)Man(a1-3)[GlcNAc(b1-2)Man(a1-6)]Man(b1-4)GlcNAc(b1-4)GlcNAc
Procedure, shortened: as §1

[4] = molecular target: GlcNAc(b1-2)Man(a1-3)[GlcNAc(b1-2)Man(a1-6)]Man(b1-4)GlcNAc(b1-4)[Fuc(a1-6)]GlcNAc
Procedure, shortened: as §1

[5] = molecular target: GlcNAc(b1-2)Man(a1-3)[GlcNAc(b1-4)][GlcNAc(b1-2)Man(a1-6)]Man(b1-4)GlcNAc(b1-4)GlcNAc
Procedure, shortened: as §1

[6] = molecular target: GlcNAc(b1-2)Man(a1-3)[GlcNAc(b1-4)][GlcNAc(b1-2)Man(a1-6)]Man(b1-4)GlcNAc(b1-4)[Fuc(a1-6)]GlcNAc
Procedure, shortened: as §1

[7] = molecular target: GlcNAc(b1-2)[GlcNAc(b1-4)]Man(a1-3)[GlcNAc(b1-2)Man(a1-6)]Man(b1-4)GlcNAc(b1-4)GlcNAc
Procedure, shortened: as §1

[8] = molecular target: GlcNAc(b1-2)[GlcNAc(b1-4)]Man(a1-3)[GlcNAc(b1-4)][GlcNAc(b1-2)Man(a1-6)]Man(b1-4)GlcNAc(b1-4)GlcNAc
Procedure, shortened: as §1

[9] = molecular target: GlcNAc(b1-2)[GlcNAc(b1-4)]Man(a1-3)[GlcNAc(b1-4)][GlcNAc(b1-2)[GlcNAc(b1-6)]Man(a1-6)]Man(b1-4)GlcNAc(b1-4)GlcNAc
Procedure, shortened: as §1

[10] = molecular target: GlcNAc(b1-2)[GlcNAc(b1-4)]Man(a1-3)[GlcNAc(b1-4)][GlcNAc(b1-2)[GlcNAc(b1-6)]Man(a1-6)]Man(b1-4)GlcNAc(b1-4)[Fuc(a1-6)]GlcNAc
Procedure, shortened: as §1

[11] = molecular target: GlcNAc(b1-2)[GlcNAc(b1-6)]Man(a1-6)[GlcNAc(b1-2)Man(a1-3)]Man(b1-4)GlcNAc(b1-4)GlcNAc
Procedure, shortened: as §1

[12] = molecular target: GlcNAc(b1-2)[GlcNAc(b1-6)]Man(a1-6)[GlcNAc(b1-2)Man(a1-3)]Man(b1-4)GlcNAc(b1-4)[Fuc(a1-6)]GlcNAc
Procedure, shortened: as §1

[13] = molecular target: GlcNAc(b1-2)[GlcNAc(b1-6)]Man(a1-6)[GlcNAc(b1-4)][GlcNAc(b1-2)Man(a1-3)]Man(b1-4)GlcNAc(b1-4)GlcNAc
Procedure, shortened: as §1

GlcNAc(b1-3)Fuc = molecular target: GlcNAc(b1-3)Fuc
Procedure, shortened: as §1

GlcNAc(b1-3)Gal = molecular target: GlcNAc(b1-3)Gal
Procedure, shortened: as §1

[14] = molecular target: GlcNAc(b1-3)Gal(b1-3)GalNAc
Procedure, shortened: as §1

GlcNAc(b1-3)Gal(b1-4)Glc = molecular target: GlcNAc(b1-3)Gal(b1-4)Glc
Procedure, shortened: as §1

[15] = molecular target: GlcNAc(b1-3)Gal(b1-4)GlcNAc
Procedure, shortened: as §1

[16] = molecular target: GlcNAc(b1-3)Gal(b1-4)GlcNAc(b1-2)Man(a1-3)[GlcNAc(b1-3)Gal(b1-4)GlcNAc(b1-2)Man(a1-6)]Man(b1-4)GlcNAc(b1-4)GlcNAc
Procedure, shortened: as §1

[17] = molecular target: GlcNAc(b1-3)Gal(b1-4)GlcNAc(b1-2)Man(a1-3)[GlcNAc(b1-3)Gal(b1-4)GlcNAc(b1-2)Man(a1-6)]Man(b1-4)GlcNAc(b1-4)[Fuc(a1-6)]GlcNAc
Procedure, shortened: as §1

[18] = molecular target: GlcNAc(b1-3)Gal(b1-4)GlcNAc(b1-2)[GlcNAc(b1-3)Gal(b1-4)GlcNAc(b1-6)]Man(a1-6)[GlcNAc(b1-3)Gal(b1-4)GlcNAc(b1-2)Man(a1-3)]Man(b1-4)GlcNAc(b1-4)GlcNAc
Procedure, shortened: as §1

[19] = molecular target: GlcNAc(b1-3)Gal(b1-4)GlcNAc(b1-3)Gal(b1-4)GlcNAc
Procedure, shortened: as §1

[20] = molecular target: GlcNAc(b1-3)Gal(b1-4)GlcNAc(b1-3)Gal(b1-4)GlcNAc(b1-2)Man(a1-3)[GlcNAc(b1-3)Gal(b1-4)GlcNAc(b1-3)Gal(b1-4)GlcNAc(b1-2)Man(a1-6)]Man(b1-4)GlcNAc(b1-4)GlcNAc
Procedure, shortened: as §1

[21] = molecular target: GlcNAc(b1-3)Gal(b1-4)GlcNAc(b1-3)Gal(b1-4)GlcNAc(b1-2)Man(a1-3)[GlcNAc(b1-3)Gal(b1-4)GlcNAc(b1-3)Gal(b1-4)GlcNAc(b1-2)Man(a1-6)]Man(b1-4)GlcNAc(b1-4)[Fuc(a1-6)]GlcNAc
Procedure, shortened: as §1

[22] = molecular target: GlcNAc(b1-3)Gal(b1-4)GlcNAc(b1-3)Gal(b1-4)GlcNAc(b1-2)[GlcNAc(b1-3)Gal(b1-4)GlcNAc(b1-3)Gal(b1-4)GlcNAc(b1-6)]Man(a1-6)[GlcNAc(b1-3)Gal(b1-4)GlcNAc(b1-3)Gal(b1-4)GlcNAc(b1-2)Man(a1-3)]Man(b1-4)GlcNAc(b1-4)[Fuc(a1-6)]GlcNAc
Procedure, shortened: as §1

[23] = molecular target: GlcNAc(b1-3)Gal(b1-4)GlcNAc(b1-3)Gal(b1-4)GlcNAc(b1-3)Gal(b1-4)GlcNAc(b1-2)Man(a1-3)[GlcNAc(b1-3)Gal(b1-4)GlcNAc(b1-3)Gal(b1-4)GlcNAc(b1-3)Gal(b1-4)GlcNAc(b1-2)Man(a1-6)]Man(b1-4)GlcNAc(b1-4)GlcNAc
Procedure, shortened: as §1

[24] = molecular target: GlcNAc(b1-3)Gal(b1-4)GlcNAc(b1-3)Gal(b1-4)GlcNAc(b1-3)Gal(b1-4)GlcNAc(b1-2)Man(a1-3)[GlcNAc(b1-3)Gal(b1-4)GlcNAc(b1-3)Gal(b1-4)GlcNAc(b1-3)Gal(b1-4)GlcNAc(b1-2)Man(a1-6)]Man(b1-4)GlcNAc(b1-4)[Fuc(a1-6)]GlcNAc
Procedure, shortened: as §1

[25] = molecular target: GlcNAc(b1-3)Gal(b1-4)GlcNAc(b1-3)Gal(b1-4)GlcNAc(b1-3)Gal(b1-4)GlcNAc(b1-2)[GlcNAc(b1-3)Gal(b1-4)GlcNAc(b1-3)Gal(b1-4)GlcNAc(b1-3)Gal(b1-4)GlcNAc(b1-6)]Man(a1-6)[GlcNAc(b1-3)Gal(b1-4)GlcNAc(b1-3)Gal(b1-4)GlcNAc(b1-3)Gal(b1-4)GlcNAc(b1-2)Man(a1-3)]Man(b1-4)GlcNAc(b1-4)[Fuc(a1-6)]GlcNAc
Procedure, shortened: as §1

[26] = molecular target: GlcNAc(b1-3)Gal(b1-4)GlcNAc(b1-3)Gal(b1-4)GlcNAc(b1-3)Gal(b1-4)GlcNAc(b1-3)Gal(b1-4)GlcNAc(b1-2)Man(a1-3)[GlcNAc(b1-3)Gal(b1-4)GlcNAc(b1-3)Gal(b1-4)GlcNAc(b1-3)Gal(b1-4)GlcNAc(b1-3)Gal(b1-4)GlcNAc(b1-2)Man(a1-6)]Man(b1-4)GlcNAc(b1-4)GlcNAc
Procedure, shortened: as §1

[27] = molecular target: GlcNAc(b1-3)Gal(b1-4)GlcNAc(b1-3)Gal(b1-4)GlcNAc(b1-3)Gal(b1-4)GlcNAc(b1-3)Gal(b1-4)GlcNAc(b1-2)Man(a1-3)[GlcNAc(b1-3)Gal(b1-4)GlcNAc(b1-3)Gal(b1-4)GlcNAc(b1-3)Gal(b1-4)GlcNAc(b1-3)Gal(b1-4)GlcNAc(b1-2)Man(a1-6)]Man(b1-4)GlcNAc(b1-4)[Fuc(a1-6)]GlcNAc
Procedure, shortened: as §1

B1: CcfD (Bacteroides vulgatus), A6KYX8 (protein)
chain: MKYKNYFKSIIYLALGAFTLGSCEDFLDRQEDEKLTFDKIWESRNTTQQYWLNAMSFLPNENGSLQGDTEPYLGASDECTIAYDRQYRWINFGTWNPSQVPYYKMDHYYKGIRECNIFLQNVYKCSDPLVTKDQLDEWYWQTRFARAYYYFLMMRDYGPVFLLGDDLLDFTASTEELYRPRNTWDQCVNYVVSEMTQCAESGVVLQQSDLPAAKWGLATVGTCHAVISRLLLYSARPLFNGNKLYSTVKNPDAPDFPELSGVKLFPELDNTKWQKAAEAAKKLIDNPCYELYRAGNDNPYEDYYGVTHETWNKELIWTDRYNGLFSWGVGTVPTGVAGTAYGAVGPTQALVDAYAMNTGWYPITGYEADGTPIVEPLSGYELASELEKSSWIYPSGGWSNKADFEIEAPNMYKDREPRFYVTVFFGGNQWLHGNSATSISFAKGGNGNKSHDYPKSGYLCNRFYDHKLNSSEGQWGNITFPVFRLGEIYLNFIEAVLECKKNGVALDPSYEALAMEKWADLRKRAGLDPITSIYGQVSTEELIQLCRKERQIELAFERHRYFDTRTWMIATQTDNGKMYGMNTSCPLDAGMKGTETPDGFWERTAFETRVFQNKHYLYPFSQRELDRNKLLTQNYGW
[1]
  glycan array binding signal (z-score): -0.592
[2]
  glycan array binding signal (z-score): -0.556
[3]
  glycan array binding signal (z-score): 0.28
[4]
  glycan array binding signal (z-score): 0.979
[5]
  glycan array binding signal (z-score): -0.647
[6]
  glycan array binding signal (z-score): -0.83
[7]
  glycan array binding signal (z-score): -1.03
[8]
  glycan array binding signal (z-score): -0.749
[9]
  glycan array binding signal (z-score): -0.531
[10]
  glycan array binding signal (z-score): -0.175
[11]
  glycan array binding signal (z-score): -0.663
[12]
  glycan array binding signal (z-score): 1.94
[13]
  glycan array binding signal (z-score): -0.683
GlcNAc(b1-3)Fuc
  glycan array binding signal (z-score): -0.327
GlcNAc(b1-3)Gal
  glycan array binding signal (z-score): -1.03
[14]
  glycan array binding signal (z-score): -0.264
GlcNAc(b1-3)Gal(b1-4)Glc
  glycan array binding signal (z-score): -0.881
[15]
  glycan array binding signal (z-score): -1.04
[16]
  glycan array binding signal (z-score): 1.97
[17]
  glycan array binding signal (z-score): 0.811
[18]
  glycan array binding signal (z-score): 3.38
[19]
  glycan array binding signal (z-score): -0.947
[20]
  glycan array binding signal (z-score): 0.694
[21]
  glycan array binding signal (z-score): 1.02
[22]
  glycan array binding signal (z-score): 0.491
[23]
  glycan array binding signal (z-score): -0.612
[24]
  glycan array binding signal (z-score): 0.775
[25]
  glycan array binding signal (z-score): 0.232
[26]
  glycan array binding signal (z-score): 0.023
[27]
  glycan array binding signal (z-score): 0.877
